# The supplement of paper PMC6411743
# Protein sequences, listed by entry. Tags and fused reporters are not part of them. Lines headed by an entry give the natural chain unless they say otherwise; changes in a name come on top.
# UniProt Q8IXK2: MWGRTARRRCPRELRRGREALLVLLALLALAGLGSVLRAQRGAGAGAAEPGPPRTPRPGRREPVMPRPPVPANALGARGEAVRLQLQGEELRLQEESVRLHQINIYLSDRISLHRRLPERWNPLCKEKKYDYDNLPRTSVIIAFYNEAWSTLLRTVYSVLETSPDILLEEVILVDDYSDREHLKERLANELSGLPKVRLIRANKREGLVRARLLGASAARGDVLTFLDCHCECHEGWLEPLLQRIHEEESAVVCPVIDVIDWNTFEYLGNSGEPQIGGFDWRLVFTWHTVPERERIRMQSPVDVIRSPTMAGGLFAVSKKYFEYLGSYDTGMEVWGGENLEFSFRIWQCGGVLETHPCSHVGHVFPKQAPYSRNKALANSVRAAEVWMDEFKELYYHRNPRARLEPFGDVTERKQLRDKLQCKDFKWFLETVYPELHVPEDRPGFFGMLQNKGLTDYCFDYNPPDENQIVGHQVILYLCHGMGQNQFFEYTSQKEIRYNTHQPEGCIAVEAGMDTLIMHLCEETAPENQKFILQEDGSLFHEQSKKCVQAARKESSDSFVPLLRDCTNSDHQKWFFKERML
# UniProt Q8N122, whole entry: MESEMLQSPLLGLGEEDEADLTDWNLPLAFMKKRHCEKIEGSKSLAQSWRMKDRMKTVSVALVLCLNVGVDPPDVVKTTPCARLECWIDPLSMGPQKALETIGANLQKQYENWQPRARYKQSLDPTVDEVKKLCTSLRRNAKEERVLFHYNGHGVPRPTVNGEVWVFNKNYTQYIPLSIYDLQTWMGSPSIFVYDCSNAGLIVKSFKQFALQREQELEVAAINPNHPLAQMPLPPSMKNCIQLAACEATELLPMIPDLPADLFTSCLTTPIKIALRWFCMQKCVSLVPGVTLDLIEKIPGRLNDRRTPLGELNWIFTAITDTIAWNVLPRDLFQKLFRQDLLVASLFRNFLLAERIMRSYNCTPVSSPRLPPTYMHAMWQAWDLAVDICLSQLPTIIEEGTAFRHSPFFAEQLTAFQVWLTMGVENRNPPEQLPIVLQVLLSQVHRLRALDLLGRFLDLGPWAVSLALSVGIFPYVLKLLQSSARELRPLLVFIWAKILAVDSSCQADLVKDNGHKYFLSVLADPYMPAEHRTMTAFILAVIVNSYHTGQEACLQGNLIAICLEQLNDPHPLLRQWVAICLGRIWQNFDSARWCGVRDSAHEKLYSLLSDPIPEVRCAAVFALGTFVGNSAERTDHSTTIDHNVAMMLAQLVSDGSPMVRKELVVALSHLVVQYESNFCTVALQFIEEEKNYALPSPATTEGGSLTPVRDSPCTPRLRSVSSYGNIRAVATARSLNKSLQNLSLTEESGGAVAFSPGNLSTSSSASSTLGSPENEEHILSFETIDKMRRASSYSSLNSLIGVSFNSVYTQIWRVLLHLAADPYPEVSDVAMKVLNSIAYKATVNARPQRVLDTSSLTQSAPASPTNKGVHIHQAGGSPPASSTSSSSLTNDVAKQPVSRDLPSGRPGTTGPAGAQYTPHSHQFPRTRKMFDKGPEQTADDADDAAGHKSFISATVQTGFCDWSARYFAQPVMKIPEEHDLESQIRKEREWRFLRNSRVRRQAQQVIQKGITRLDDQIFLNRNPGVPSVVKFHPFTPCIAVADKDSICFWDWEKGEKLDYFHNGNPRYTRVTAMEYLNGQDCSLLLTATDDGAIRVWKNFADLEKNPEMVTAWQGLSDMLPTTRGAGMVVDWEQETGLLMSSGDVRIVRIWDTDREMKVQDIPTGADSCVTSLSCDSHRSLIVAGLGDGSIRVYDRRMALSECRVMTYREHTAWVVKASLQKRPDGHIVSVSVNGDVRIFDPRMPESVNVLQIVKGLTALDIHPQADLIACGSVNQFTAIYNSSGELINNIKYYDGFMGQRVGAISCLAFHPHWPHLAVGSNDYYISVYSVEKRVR
# UniProt Q8N5U6: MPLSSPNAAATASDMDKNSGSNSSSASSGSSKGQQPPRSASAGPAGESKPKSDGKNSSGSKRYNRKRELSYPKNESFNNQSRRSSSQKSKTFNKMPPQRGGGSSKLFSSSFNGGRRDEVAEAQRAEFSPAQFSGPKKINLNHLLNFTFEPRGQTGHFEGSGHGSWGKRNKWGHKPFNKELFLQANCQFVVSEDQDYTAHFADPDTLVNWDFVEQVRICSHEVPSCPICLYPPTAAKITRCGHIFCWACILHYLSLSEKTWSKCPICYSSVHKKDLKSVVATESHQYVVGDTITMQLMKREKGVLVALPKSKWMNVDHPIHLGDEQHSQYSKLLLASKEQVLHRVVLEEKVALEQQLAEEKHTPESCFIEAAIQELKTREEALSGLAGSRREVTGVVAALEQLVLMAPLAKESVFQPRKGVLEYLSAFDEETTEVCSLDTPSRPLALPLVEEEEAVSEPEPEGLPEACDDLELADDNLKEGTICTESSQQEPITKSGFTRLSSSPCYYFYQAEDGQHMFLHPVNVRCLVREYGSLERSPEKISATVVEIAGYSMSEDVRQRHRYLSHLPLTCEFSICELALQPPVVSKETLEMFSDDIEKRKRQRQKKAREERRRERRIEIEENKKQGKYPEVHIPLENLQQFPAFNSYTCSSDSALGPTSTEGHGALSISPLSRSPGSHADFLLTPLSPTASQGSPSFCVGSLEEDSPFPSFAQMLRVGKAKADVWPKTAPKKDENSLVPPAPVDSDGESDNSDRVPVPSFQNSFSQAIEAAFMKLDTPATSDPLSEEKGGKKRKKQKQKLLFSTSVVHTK
# UniProt Q8N766: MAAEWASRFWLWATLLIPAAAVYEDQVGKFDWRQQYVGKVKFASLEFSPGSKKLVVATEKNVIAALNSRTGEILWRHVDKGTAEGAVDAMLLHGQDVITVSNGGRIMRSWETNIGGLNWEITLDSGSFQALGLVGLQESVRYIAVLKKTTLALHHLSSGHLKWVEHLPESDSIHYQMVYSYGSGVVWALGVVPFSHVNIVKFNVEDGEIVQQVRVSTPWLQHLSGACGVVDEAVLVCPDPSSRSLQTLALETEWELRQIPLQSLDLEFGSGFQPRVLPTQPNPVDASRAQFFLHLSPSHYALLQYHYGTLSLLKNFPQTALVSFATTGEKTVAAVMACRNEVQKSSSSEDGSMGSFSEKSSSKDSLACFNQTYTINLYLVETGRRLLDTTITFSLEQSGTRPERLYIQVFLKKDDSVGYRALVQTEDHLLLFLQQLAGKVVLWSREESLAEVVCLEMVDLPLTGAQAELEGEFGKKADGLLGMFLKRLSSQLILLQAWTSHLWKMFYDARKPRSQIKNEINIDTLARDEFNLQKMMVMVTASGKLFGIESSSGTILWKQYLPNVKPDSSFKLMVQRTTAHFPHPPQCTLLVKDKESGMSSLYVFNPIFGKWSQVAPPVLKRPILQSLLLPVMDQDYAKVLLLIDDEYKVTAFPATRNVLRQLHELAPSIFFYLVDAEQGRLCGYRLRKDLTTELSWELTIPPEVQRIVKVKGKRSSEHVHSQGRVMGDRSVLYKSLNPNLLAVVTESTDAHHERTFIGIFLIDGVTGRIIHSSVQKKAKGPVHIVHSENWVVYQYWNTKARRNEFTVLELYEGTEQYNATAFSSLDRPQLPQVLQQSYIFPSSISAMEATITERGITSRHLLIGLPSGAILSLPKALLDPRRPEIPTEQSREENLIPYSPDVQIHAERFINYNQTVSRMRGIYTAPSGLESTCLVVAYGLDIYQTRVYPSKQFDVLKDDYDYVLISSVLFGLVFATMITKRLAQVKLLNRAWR
# UniProt Q8NFI3: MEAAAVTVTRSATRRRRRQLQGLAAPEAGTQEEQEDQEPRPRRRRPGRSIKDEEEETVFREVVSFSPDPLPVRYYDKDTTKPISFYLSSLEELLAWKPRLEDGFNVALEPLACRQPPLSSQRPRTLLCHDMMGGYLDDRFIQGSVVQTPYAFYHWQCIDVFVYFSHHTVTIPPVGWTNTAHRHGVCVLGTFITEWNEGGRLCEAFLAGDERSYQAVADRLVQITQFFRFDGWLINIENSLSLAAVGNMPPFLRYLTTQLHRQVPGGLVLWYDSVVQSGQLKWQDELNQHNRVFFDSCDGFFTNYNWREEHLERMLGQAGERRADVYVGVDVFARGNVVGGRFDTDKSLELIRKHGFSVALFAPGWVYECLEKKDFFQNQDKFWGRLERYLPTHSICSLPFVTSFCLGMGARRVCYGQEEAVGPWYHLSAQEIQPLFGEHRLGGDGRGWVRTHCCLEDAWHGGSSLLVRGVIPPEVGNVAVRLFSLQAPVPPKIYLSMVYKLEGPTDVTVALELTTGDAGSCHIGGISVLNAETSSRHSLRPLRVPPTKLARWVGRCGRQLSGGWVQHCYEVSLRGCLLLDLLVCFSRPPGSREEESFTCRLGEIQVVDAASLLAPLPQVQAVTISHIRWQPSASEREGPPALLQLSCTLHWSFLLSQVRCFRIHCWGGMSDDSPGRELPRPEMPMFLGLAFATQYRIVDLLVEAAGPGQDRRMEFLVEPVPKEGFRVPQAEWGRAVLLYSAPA
# UniProt Q8N183: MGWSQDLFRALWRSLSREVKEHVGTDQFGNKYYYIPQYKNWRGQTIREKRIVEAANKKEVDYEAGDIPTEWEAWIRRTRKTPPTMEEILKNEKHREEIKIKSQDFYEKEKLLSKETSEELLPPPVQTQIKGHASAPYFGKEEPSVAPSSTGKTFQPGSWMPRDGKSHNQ
# UniProt Q8TCS8: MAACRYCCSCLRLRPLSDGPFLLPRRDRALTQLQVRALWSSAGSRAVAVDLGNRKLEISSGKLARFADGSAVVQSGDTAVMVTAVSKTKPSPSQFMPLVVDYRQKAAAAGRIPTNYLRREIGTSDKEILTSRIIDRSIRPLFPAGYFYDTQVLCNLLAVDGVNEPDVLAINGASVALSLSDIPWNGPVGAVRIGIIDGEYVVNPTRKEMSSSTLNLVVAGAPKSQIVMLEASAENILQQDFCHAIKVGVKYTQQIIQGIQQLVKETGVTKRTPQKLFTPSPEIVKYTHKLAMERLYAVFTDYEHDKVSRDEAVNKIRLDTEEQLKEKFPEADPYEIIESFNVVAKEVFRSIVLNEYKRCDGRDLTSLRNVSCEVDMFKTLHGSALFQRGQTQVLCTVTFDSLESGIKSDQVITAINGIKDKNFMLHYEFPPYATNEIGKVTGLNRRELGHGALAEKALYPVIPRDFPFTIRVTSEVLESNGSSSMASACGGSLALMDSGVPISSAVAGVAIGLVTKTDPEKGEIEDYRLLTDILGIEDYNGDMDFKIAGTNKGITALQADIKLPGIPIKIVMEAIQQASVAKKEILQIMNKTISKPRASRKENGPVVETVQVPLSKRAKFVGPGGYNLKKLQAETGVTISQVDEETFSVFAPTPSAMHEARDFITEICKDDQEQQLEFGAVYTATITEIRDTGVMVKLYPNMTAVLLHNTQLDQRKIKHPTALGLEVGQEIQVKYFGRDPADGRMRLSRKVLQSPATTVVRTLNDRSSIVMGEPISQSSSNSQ
# UniProt Q8N4Q0: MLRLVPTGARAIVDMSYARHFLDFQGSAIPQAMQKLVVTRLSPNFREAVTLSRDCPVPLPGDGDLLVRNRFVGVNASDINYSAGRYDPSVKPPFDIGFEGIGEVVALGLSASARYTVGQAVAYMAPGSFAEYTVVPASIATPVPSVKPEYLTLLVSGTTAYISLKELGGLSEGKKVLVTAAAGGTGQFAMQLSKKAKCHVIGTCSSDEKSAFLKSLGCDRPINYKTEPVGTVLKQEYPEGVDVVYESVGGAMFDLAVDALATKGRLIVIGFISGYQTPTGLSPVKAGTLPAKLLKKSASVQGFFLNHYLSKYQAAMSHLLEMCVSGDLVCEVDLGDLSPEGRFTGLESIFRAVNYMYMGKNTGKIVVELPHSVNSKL
# UniProt Q8NFH3: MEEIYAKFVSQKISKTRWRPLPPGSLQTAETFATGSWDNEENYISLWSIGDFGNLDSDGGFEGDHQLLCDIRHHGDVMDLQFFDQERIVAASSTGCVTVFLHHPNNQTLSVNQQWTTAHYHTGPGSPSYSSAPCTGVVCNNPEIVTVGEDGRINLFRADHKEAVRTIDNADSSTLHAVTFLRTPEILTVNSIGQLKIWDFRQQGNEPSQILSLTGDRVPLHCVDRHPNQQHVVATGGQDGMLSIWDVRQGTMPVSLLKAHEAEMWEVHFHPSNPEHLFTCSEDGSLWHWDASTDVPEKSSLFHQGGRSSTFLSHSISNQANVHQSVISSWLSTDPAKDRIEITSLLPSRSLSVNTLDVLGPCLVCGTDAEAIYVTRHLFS
# UniProt Q86YS6: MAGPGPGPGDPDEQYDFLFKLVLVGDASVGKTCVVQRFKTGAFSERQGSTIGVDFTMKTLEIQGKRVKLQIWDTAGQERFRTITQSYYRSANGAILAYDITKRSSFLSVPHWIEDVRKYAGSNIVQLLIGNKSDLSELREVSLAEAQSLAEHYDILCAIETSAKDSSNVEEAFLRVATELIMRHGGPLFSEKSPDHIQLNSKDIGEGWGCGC
# UniProt Q8N5K1: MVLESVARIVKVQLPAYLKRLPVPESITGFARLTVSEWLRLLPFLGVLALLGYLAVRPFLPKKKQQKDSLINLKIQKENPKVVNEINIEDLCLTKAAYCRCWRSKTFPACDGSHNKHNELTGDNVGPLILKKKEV
# ± gives the standard deviation of the averaged measurements. This is one part of the list.
# Compound: Nc1nc2c(ncn2[C@@H]2O[C@H](COP(=O)(O)OP(=O)(O)OP(=O)(O)O)[C@@H](O)[C@H]2O)c(=O)[nH]1 [guanosine triphosphate]
# Assay: NP40-soluble protein abundance relative to vehicle (solubility fold change) (ratio); higher = more soluble protein in presence of GTP
# Settings: concentration: 8mM
# Procedure, shortened: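 Data come from three independent experiments in which Dounce-homogenised Jurkat crude lysate was treated at eight concentrations from 0.1 to 10 mM. Treatment ran 10 min at room temperature and then 3 min at 37 °C, after which 0.8% NP40 and benzonase were added for 60 min at 4 °C before ultracentrifugation. The supernatant underwent TMT labelling and LC-MS/MS, and vsn-normalised intensities were expressed as fold change against the detergent-processed vehicle in each replicate.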
row,Target,NP40-soluble protein abundance
1,UniProt Q86Y56,0.953 ± 0.072
2,UniProt Q86X53 and related entries,1 ± 0.041
3,UniProt Q8ND04 and related entries,1.1 ± 0.07
4,GALNT12 (UniProt Q8IXK2),0.949 ± 0.06
5,UniProt Q8TDZ2 and related entries,0.921 ± 0.016
6,UniProt Q8N122 and related entries,0.976 ± 0.084
7,UniProt Q8N5U6 and related entries,1.1 ± 0.11
8,UniProt Q8TCT9 and related entries,0.864 ± 0.018
9,UniProt Q8N766 and related entries,0.901 ± 0.015
10,UniProt Q8TD16 and related entries,0.961 ± 0.055
11,UniProt Q8NFI3 and related entries,0.872 ± 0.037
12,TTC5 (UniProt Q8N0Z6),0.96 ± 0.049
13,NDUFAF2 (UniProt Q8N183),0.963 ± 0.1
14,UniProt Q8TEX9 and related entries,0.929 ± 0.029
15,DCUN1D3 (UniProt Q8IWE4),0.919 ± 0.12
16,UniProt Q8NHU6 and related entries,1.09 ± 0.065
17,UniProt Q8IXI2 and related entries,0.938 ± 0.066
18,FTSJ3 (UniProt Q8IY81),1.16 ± 0.024
19,PNPT1 (UniProt Q8TCS8),0.978 ± 0.03
20,ZADH2 (UniProt Q8N4Q0),0.947 ± 0.084
21,UniProt Q86YP4 and related entries,1.23 ± 0.13
22,NUP43 (UniProt Q8NFH3),1.11 ± 0.071
23,RAB43 (UniProt Q86YS6),0.889 ± 0.068
24,UniProt Q8IUX7,1.15 ± 0.1
25,INTS1 (UniProt Q8N201),1.32 ± 0.26
26,CISD2 (UniProt Q8N5K1),0.879 ± 0.13

# Taken from above.
# Entry for ZADH2 (UniProt Q8N4Q0) under NP40-soluble protein abundance: 0.947 ± 0.084
# Entry for TTC5 (UniProt Q8N0Z6) under NP40-soluble protein abundance: 0.96 ± 0.049
